Taken from: PubChem BioAssay AID1224826 (NIAID, 2016)

Screen: 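Regulators of Tlr4 signalling leading to Tnf-alpha expression in macrophages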 (primary screen)
Cells: RAW264.7 G9 macrophages from mouse bearing reporters for p65 (GFP) and the Tnf promoter (mCherry)
Knock-down reagent: siRNA pool against mouse genes, 100 nM
Duration: 16 h of LPS stimulation, after 2 days of siRNA transfection
Treatment: bacterial lipopolysaccharide (Salmonella minnesota R595), 10 ng/ml
Measurement: 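Imaged Tnf reporter mCherry in nuclei, minus background, normalised per plate to the median and expressed as robust z-scores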
Direction: Tnf reporter robust z-score: higher = stronger Tnf promoter reporter signal after LPS; Tnf reporter intensity: higher = stronger Tnf promoter reporter signal
Hit rule: 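a well counts as active at a score of -1.3 or below (Tlr4 knock-down control median) or above 3 (raised signal); controls and wells holding fewer than 50 cells are excluded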
Meaning of the calls: active = Tnf reporter clearly lowered or raised; inactive = no clear change in Tnf reporter
Here is a random part of about 17,000 reagents tested. About 1,110 of them (6.6%) count as active. 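Active means lowered or raised reporter signal; replicate intensities are raw and not normalised per plate.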 Some reagents were tested in more than one well and are listed for each.

| gene | Tnf reporter robust z-score | fewer than 50 cells in well | Tnf reporter intensity, replicate 1 | Tnf reporter intensity, replicate 2 | Outcome |
| --- | --- | --- | --- | --- | --- |
| Notch2 (GeneID 18129) | -0.49 | enough cells in well | 243 | 119 | inactive |
| Gm10128 (GeneID 100042312) | 0.58 | enough cells in well | 183 | 90.9 | inactive |
| Slc5a11 (GeneID 233836) | – | fewer than 50 cells per well; well left out of calls | 85.4 | 61.3 | inactive |
| Sorl1 (GeneID 20660) | 0.89 | enough cells in well | 364 | 279 | inactive |
| Plod2 (GeneID 26432) | -0.85 | enough cells in well | 91.2 | 94 | inactive |
| Echs1 (GeneID 93747) | -0.46 | enough cells in well | 197 | 192 | inactive |
| Rapgef6 (GeneID 192786) | 2.31 | enough cells in well | 237 | 230 | inactive |
| Cyb5r2 (GeneID 320635) | 0.97 | enough cells in well | 318 | 291 | inactive |
| Pgk1 (GeneID 18655) | -0.13 | enough cells in well | 152 | 188 | inactive |
| Krtap5-2 (GeneID 71623) | – | fewer than 50 cells per well; well left out of calls | 257 | 60 | inactive |
| D630023F18Rik (GeneID 98303) | 1.68 | enough cells in well | 342 | 214 | inactive |
| Tbc1d23 (GeneID 67581) | 0.4 | enough cells in well | 259 | 67.2 | inactive |
| Psme1 (GeneID 19186) | -0.91 | enough cells in well | 162 | 140 | inactive |
| Kcnip4 (GeneID 80334) | 0.91 | enough cells in well | 234 | 183 | inactive |
| H2bc26 (GeneID 382522) | -1.18 | enough cells in well | 157 | 92.3 | inactive |
| Or51ai2 (GeneID 259123) | – | fewer than 50 cells per well; well left out of calls | 0 | 90.3 | inactive |
| Ppt2 (GeneID 54397) | -0.62 | enough cells in well | 114 | 90.8 | inactive |
| Dram2 (GeneID 67171) | 0.57 | enough cells in well | 162 | 84.7 | inactive |
| Tmem71 (GeneID 213068) | -1.46 | enough cells in well | 108 | 90.8 | active |
| Ptprn (GeneID 19275) | -0.55 | enough cells in well | 332 | 113 | inactive |
| Fzd7 (GeneID 14369) | 0.02 | enough cells in well | 192 | 340 | inactive |
| H2-M10.6 (GeneID 399549) | 1.74 | enough cells in well | 394 | 258 | inactive |

5 entries from above, reduced to “Tnf reporter intensity, replicate 1”:
Krtap5-2 (GeneID 71623) = 257
D630023F18Rik (GeneID 98303) = 342
Tbc1d23 (GeneID 67581) = 259
Psme1 (GeneID 19186) = 162
Kcnip4 (GeneID 80334) = 234

More records:
| gene | Tnf reporter robust z-score | fewer than 50 cells in well | Tnf reporter intensity, replicate 1 | Tnf reporter intensity, replicate 2 | Outcome |
| --- | --- | --- | --- | --- | --- |
| Pnpla2 (GeneID 66853) | -0.15 | enough cells in well | 268 | 48.3 | inactive |
| Map4k5 (GeneID 399510) | -1.63 | enough cells in well | 89.6 | 50 | active |
| Map4k5 (GeneID 399510) | -0.96 | enough cells in well | 132 | 83.9 | inactive |
| Cldn1 (GeneID 12737) | -0.95 | enough cells in well | 155 | 153 | inactive |
| Or2ag13 (GeneID 258591) | 2.47 | enough cells in well | 202 | 188 | inactive |
| Evx1 (GeneID 14028) | -0.04 | enough cells in well | 217 | 236 | inactive |
| Bag3 (GeneID 29810) | -0.57 | enough cells in well | 126 | 118 | inactive |
| Gjb1 (GeneID 14618) | -0.66 | enough cells in well | 209 | 174 | inactive |
| Cxcr4 (GeneID 12767) | -0.95 | enough cells in well | 104 | 215 | inactive |
| Vsir (GeneID 74048) | – | fewer than 50 cells per well; well left out of calls | 100 | 51.5 | inactive |
| Zswim4 (GeneID 212168) | -0.47 | enough cells in well | 83 | 130 | inactive |
| Gcdh (GeneID 270076) | -0.1 | enough cells in well | 249 | 227 | inactive |
| Suco (GeneID 226551) | 1.34 | enough cells in well | 293 | 278 | inactive |
| Gchfr (GeneID 320415) | – | fewer than 50 cells per well; well left out of calls | 191 | 37 | inactive |
| Cyp2c23 (GeneID 226143) | -1.96 | enough cells in well | 61.7 | 80.4 | active |
| Wdr5b (GeneID 69544) | 0.92 | enough cells in well | 394 | 65.7 | inactive |
| Pkd2 (GeneID 18764) | 0.59 | enough cells in well | 296 | 229 | inactive |
| Pip5k1c (GeneID 18717) | 0.16 | enough cells in well | 246 | 215 | inactive |
